Consider 62 compounds from PubChem BioAssay AID2685 (National Center for Advancing Translational Sciences (NCATS), 2010).

This is one part of the list. Shown are side measurements of this screen, not its main read-out; they come without a call. Most of these compounds were active or inconclusive in the main read-out, so they are no random draw. Words in brackets tell the shape of the fitted curve; partial curves, single points and poor fits give uncertain potencies.

The nature of the assay: qHTS Assay for Lipid Storage Modulators in Drosophila S3 Cells.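 On cell number change: cells counted by Cell Tracker Red CMTPX staining in the red channel.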 Particulars: BODIPY lipid droplet fluorescence, 18-24 h; for cell number change: measured here: cell count max response, cells fed with added oleic acid. The procedure, abridged: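 Laser-scanning cytometry quantifies lipid droplet accumulation (500–530 nm total intensity; droplet/cell object ratio) in oleic acid-fed (400 uM added) Drosophila S3 cells treated with a concentration series. 20 uM Triacsin C defined 100% inhibition.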
In general terms: In qHTS, concentration-response curves come from the screen itself.

Setting [1] is: measured here: lipid fluorescence (Fed channel) AC50, cells fed with added oleic acid.
Setting [2] is: measured here: cell number channel AC50, cells fed with added oleic acid.

Broadly, the AC50 is the concentration at which the activity in the assay is half-maximal. Read a high AC50 as activity only at high concentration. For `CC(C)Oc1ccccc1C1(c2ccccc2)NC(=O)NC1=O` (stereo not drawn), the cell number change was found to be 15.5%. In addition, under setting [1], the AC50 is 3.66 µM [rising, full curve].

For the compound `COc1cc([C@@H]2CC=C(C(=O)O)CN2S(=O)(=O)c2ccc(C)cc2)cc(OC)c1OC`, the cell number change turned out to be 0.765%. For the same compound, under setting [1], the AC50 was 0.58 µM [rising, single point].

Turning to `Cc1cc(C=O)c(C)n1-c1ccc(Oc2ccc([N+](=O)[O-])cn2)cc1`, the cell number change was determined as 7.56%. In addition, under setting [1], the AC50 was 0.731 µM [rising, single point].

`COC(=O)CC1COc2ccccc2N1C(=O)c1cccc(Cl)c1` (stereo not drawn): the cell number change was -10.6%. Also, the AC50 under setting [1] was 0.0231 µM [falling, full curve, poor fit].

Consider `O=C(c1ccc(Br)o1)N1CCc2ccccc21`, for which the cell number change was determined as 24.9%. Under setting [1], the concentration at half-maximal activity (AC50) was 25.9 µM [rising, single point].

On to `C/C(=C1\SC(N2CCOCC2)=NC1=O)c1ccccc1`, for which the cell number change was 11%. For the same compound, the AC50 under setting [1] is 2.06 µM [rising, single point].

As to `Cc1ccc(CN2CCC(n3nccc3NC(=O)c3ccccc3C)CC2)o1`, the cell number change was -29.2%. The AC50 under setting [1] was 6.51 µM [falling, single point].

Take `Cc1nnc(SCc2nc3sc4c(c3c(=O)[nH]2)CCCC4)n(N)c1=O`: the cell number change was -59.3%. Further, under setting [2], the AC50 was 29.1 µM [falling, single point]. The AC50 under setting [1] was 29.1 µM [falling, single point].

Take `O=C(Oc1cccc(C(=S)N2CCCCC2)c1)c1ccccc1`: the cell number change was 17.9%. Under setting [1], the AC50 is 0.517 µM [rising, single point].

For `COc1ccc(Cl)cc1NC(=O)CCN1C(=O)C2C3C=CC(C4CC34)C2C1=O` (stereo not drawn), the cell number change was -19.8%. For the same compound, under setting [1], the AC50 was 29.1 µM [rising, single point].

As for `COc1ccc(N(C(=O)CNC(=O)c2ccco2)C(C(=O)NC2CCCCC2)c2ccco2)cc1` (stereo not drawn), the cell number change came out at 0.439%. In addition, under setting [1], the AC50 is 6.51 µM [rising, single point].

With `Cc1ccc2c(c1)N(CC(=O)NCC1CCCO1)C(=O)C(C(C)C)O2` (stereo not drawn), the cell number change is 21.8%.

For the compound `Cc1oc2ccc(O)cc2c1C(=O)c1ccc(Cl)cc1`, the cell number change was -22.8%. The AC50 under setting [1] is 0.731 µM [falling, partial curve, poor fit].

Take `CC(C)CCNC(=O)C1c2ccccc2Oc2ccccc21`: the cell number change was -6.04%.

Turning to `COC(=O)c1[nH]c2cccc(OC)c2c1NC(=O)CN1CCOCC1`, the cell number change amounted to 1.47%.

Consider `O=C(NCc1cccs1)C(=O)NCC1OCCCN1S(=O)(=O)c1ccccc1` (stereo not drawn), for which the cell number change was determined as 117%. For the same compound, the AC50 under setting [2] is 29.1 µM [rising, single point].

For the compound `NS(=O)(=O)c1ccc(N2N=C(c3ccccc3)CC2c2ccc(F)cc2)cc1` (stereo not drawn), the cell number change stood at 28.5%. Under setting [1], the AC50 is 6.51 µM [rising, single point].

For `Cc1cc(NC(=O)CSCCc2ccncc2)no1`, the cell number change stood at 26%. Under setting [1], the AC50 was 14.6 µM [rising, single point].

As to `COc1ccccc1NC(=O)CN1CCN(CC(=O)Nc2ccc(OC)c(OC)c2)CC1`, the cell number change worked out at 36.9%. In addition, under setting [2], the AC50 is 23.1 µM [rising, single point].

For `CN1CCN(CCCN(Cc2cccs2)C(=S)Nc2ccc(Cl)cc2)CC1`, the AC50 under setting [2] is 0.731 µM [falling, single point].

With `Cc1ccc(OCC(=O)NN=C2c3ccccc3-c3ccccc32)cc1`, the cell number change is 15.5%. The AC50 under setting [1] is 13 µM [rising, partial curve, poor fit].

On to `Cc1cccc(C)c1NC(=O)COC(=O)CCc1c[nH]c2ccccc12`, for which the cell number change was -7.9%. Besides, the AC50 under setting [1] is 0.206 µM [rising, full curve].

Take `COc1ccc(CCNc2nnc(C)c(=O)[nH]2)cc1OC`: the AC50 under setting [2] was 0.00517 µM [falling, full curve, poor fit] and the AC50 under setting [1] was 2.91 µM [falling, single point].

Take `CC1(C)CC(=O)C=C(N=CC2=C(O)CC(C)(C)CC2=O)C1`: the cell number change is -40.8%. Besides, the AC50 under setting [2] is 0.231 µM [falling, full curve]. Moreover, under setting [1], the AC50 was 6.51 µM [falling, single point].

As to `COC(=O)C1CC(=O)N(Cc2ccccc2)C1` (stereo not drawn), the cell number change was -37.2%. The AC50 under setting [2] is 6.51 µM [falling, partial curve].

Consider `COC(=O)C1=C(C)N(Cc2ccccc2)C(=NCCCCO)N[C@H]1c1ccccc1`, for which the cell number change was 2.51%.

`CC(=O)c1c(C)[nH]c(C(=O)N2CCN(c3ccc(F)cc3)CC2)c1C`: the cell number change is -1.86%.

For the compound `CCCCNC(=S)NNC(=O)CCn1nc(C)c(Br)c1C`, the cell number change is -1.49%. In addition, the AC50 under setting [2] is 6.51 µM [rising, single point].

Consider `CC1(C)CC(=O)C=C(c2ccc(Oc3ccccc3)cc2)C1`, for which the cell number change is -36.6%. Besides, the AC50 under setting [2] was 0.731 µM [falling, full curve].

Turning to `CCOc1ccc(Cl)cc1S(=O)(=O)n1cnc2ccccc21`, the cell number change came out at 3.71%. Further, under setting [1], the AC50 is 29.1 µM [rising, single point].

For `COc1ccc(NC(=O)C2CCN(c3ncnc4c3nc3n4CCCCC3)CC2)cc1Cl`, the cell number change came to 5.34%.

As for `CCC(=O)Nc1ccc(Cl)c(NC(=O)c2ccc([N+](=O)[O-])cc2)c1`, the cell number change turned out to be 5.87%. The AC50 under setting [1] is 0.231 µM [falling, full curve, poor fit].

As for `CCN(CC)S(=O)(=O)c1ccc(N2CCCC2)c(NS(=O)(=O)c2ccccc2)c1`, the cell number change is -41.9%. Also, under setting [2], the AC50 is 0.92 µM [falling, full curve]. For the same compound, the AC50 under setting [1] was 18.4 µM [falling, partial curve].

In the case of `CCCNC(=O)CSc1nc(COc2ccccc2)nc2ccccc12`, the cell number change turned out to be 15.4%.

`O=C(Nc1ccncc1)c1cccc(S(=O)(=O)N2CCN(c3ccc(F)cc3)CC2)c1`: the cell number change is -25.5%.

As for `COc1ccc(NC(=O)CN(C)CC(=O)NCC(=O)Nc2ccc(F)cc2)cc1`, the cell number change is -15.5%. The AC50 under setting [1] was 4.11 µM [rising, partial curve, poor fit].

Take `Cc1ccc(S(=O)(=O)N(C)C)cc1NC(=S)NNC(=O)C(N)=O`: the cell number change turned out to be 26%.

With `O=C(COC(=O)CCc1ccc(S(=O)(=O)N2CCOCC2)cc1)Nc1ncc(C(F)(F)F)cc1Cl`, the cell number change was 8.12%. Also, the AC50 under setting [1] was 16.4 µM [falling, partial curve].

As to `CCCCC(=O)NC(NC(=O)CCCC)c1ccc(OCC(C)C)c(OC)c1`, the cell number change came out at 1.53%. For the same compound, the AC50 under setting [1] was 0.0731 µM [rising, full curve, poor fit].

On to `Nc1c(Cl)cc2c(c1Oc1ccccc1)C(=O)c1ccccc1C2=O`, for which the AC50 reads like this: under setting [2], 0.461 µM [rising, full curve]; under setting [1], 0.291 µM [rising, partial curve, poor fit].

In the case of `N#CC1=C(S)N(c2ccccc2)C(c2ccc(-c3ccccc3Cl)o2)NC1=O` (stereo not drawn), the cell number change is -41.7%. Also, the AC50 under setting [2] is 5.8 µM [falling, full curve].

For the compound `COc1ccccc1NC(=O)Nc1ccc2c(c1)nnn2C`, the AC50 runs as follows: under setting [2], 0.0731 µM [rising, full curve, poor fit]; under setting [1], 0.411 µM [rising, full curve].

Take `CC1CCN(C(=O)CSc2nncn2C)CC1`: the cell number change is -13%. Also, the AC50 under setting [1] is 0.13 µM [rising, full curve, poor fit].

Take `O=C1NC(c2ccc(Br)cc2)Nc2ccccc21` (stereo not drawn): the cell number change came to 10.6%.

As to `CCOc1ccc(N(CC(=O)Nc2ccc(C)c(C)c2)S(=O)(=O)c2c(C)noc2C)cc1`, the cell number change was -8.62%. In addition, under setting [1], the AC50 was 29.1 µM [falling, single point].

With `CC1(C)N([O-])c2cc([N+](=O)[O-])ccc2[N+]1=O`, the cell number change was -33%. Also, the AC50 under setting [2] is 7.31 µM [falling, partial curve]. Under setting [1], the AC50 was 11.6 µM [falling, partial curve].

With `CSc1ccc(NC(=O)Nc2ccc(C(=O)NCC(=O)O)cc2)cc1`, the cell number change was -14.9%. The AC50 under setting [1] was 6.51 µM [falling, single point].

As to `O=C1NC2(CCCC2)N=C1c1ccc(F)cc1`, the cell number change was -59.5%. Under setting [2], the AC50 is 29.1 µM [falling, partial curve].

Turning to `CCN(CC)C(=O)COc1ccc2oc(C)c(C(=O)OC)c2c1`, the cell number change is 2.33%. Moreover, the AC50 under setting [1] is 0.651 µM [rising, full curve, poor fit].

In the case of `CCOC(=O)C1CCN(S(=O)(=O)c2cc3c(cc2C)NC(=O)CO3)CC1`, the cell number change is -2.59%. For the same compound, the AC50 under setting [1] is 0.00517 µM [falling, full curve, poor fit].

Turning to `CCCCN1C(=O)c2ccccc2C1C(=O)NC1CCCC1` (stereo not drawn), the cell number change was -11.5%. The AC50 under setting [1] was 0.058 µM [falling, full curve].

With `Cc1cc(NC(=O)CSc2ccc3nnc(CCNS(=O)(=O)c4ccccc4)n3n2)no1`, the cell number change came to 4.56%. Further, the AC50 under setting [2] was 4.11 µM [falling, single point]. In addition, the AC50 under setting [1] was 4.11 µM [falling, single point].

Take `Cc1cccc(NC(=O)c2ccc(OC3CSC3)cc2)c1`: the cell number change was -0.157%.

On to `Cc1cc(Cl)ccc1NC(=O)CSc1nnc(Cc2cccs2)n1Cc1ccco1`, for which the AC50 runs as follows: under setting [2], 0.82 µM [rising, partial curve]; under setting [1], 0.58 µM [rising, partial curve].

As for `CCNC(=O)/C(=C/c1cccc([N+](=O)[O-])c1)NC(=O)c1ccc(C)cc1`, the cell number change was found to be 6.81%. Also, the AC50 under setting [1] was 0.146 µM [rising, single point].

With `COc1ccc(CNC(=O)CS(=O)(=O)Cc2nc(-c3ccc(OC)cc3)oc2C)cc1`, the cell number change came out at 53.3%. The AC50 under setting [2] was 32.6 µM [rising, single point].

With `CC(C)CNC(=O)C1CCN(c2ccc(S(=O)(=O)N3CCOCC3)cc2)CC1`, the cell number change was -3.4%. Further, the AC50 under setting [1] is 0.0651 µM [falling, full curve, poor fit].

Take `O=C(Nc1ccc(S(=O)(=O)N2CCCCC2)cc1)c1cccnc1Cl`: the cell number change was 105%.

Consider `CC1(C)Cc2nc3sc(C(N)=O)c(N)c3cc2CO1`, for which the cell number change is 18.9%. Also, the AC50 under setting [2] was 0.00461 µM [rising, full curve, poor fit].

For `O=C(O)c1ccccc1S(=O)(=O)NCC(O)COC1CCCCC1` (stereo not drawn), the cell number change is 7.64%. Besides, the AC50 under setting [1] was 5.17 µM [falling, partial curve, poor fit].

For the compound `CC(=O)Nc1ccc(NC(=O)c2ccc3c(c2)C(=O)N(c2ccccc2C)C3=O)cc1`, the cell number change came to 42.3%. Besides, the AC50 under setting [2] is 18.4 µM [rising, single point]. The AC50 under setting [1] was 8.2 µM [rising, partial curve].

Regarding `CCOc1cc(N2CCOCC2)c(OCC)cc1NC(=O)c1ccc2ccccc2n1`, the cell number change is -116%. Also, the AC50 under setting [2] was 29.1 µM [falling, single point]. Further, the AC50 under setting [1] was 0.116 µM [falling, full curve, poor fit].
